Results deposited as PubChem BioAssay AID1053208 (Peter MacCallum Cancer Centre, 2014).
Aim: 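Synthetic lethal interactions between gene loss and doxorubicin in osteosarcoma cells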 (primary screen). Cell system: mouse osteosarcoma cells, early-passage culture from an engineered mouse model of fibroblastic bone tumour. Reagent: siRNA pool against mouse genes, 40 nM. Time to read-out: about 120 h (48 h before drug, then 72 h with drug). Challenge: doxorubicin 100 nM for 72 h, roughly 30-40% inhibitory dose. Read-out: 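Luminescent ATP signal taken as viability with or without 100 nM doxorubicin for 72 h; mean of two wells set against non-targeting siRNA and turned into robust z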. Direction: viability z-score with doxorubicin: higher = more viable cells under doxorubicin; viability z-score without drug: higher = more viable cells with knock-down alone. Active means: 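a pool counts as active when its viability z-score with doxorubicin is -2 or below and its z-score without drug lies between -2 and 2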.
Shown is a random part of about 17,000 deposited reagents. Of all reagents, 788 (4.7%) were called active. 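Calls rest on z-score classes alone; an extra cut-off of viability at most 70% of control was not applied to them.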 Entries without a mark were called inactive. Further read-outs or replicates are left out here.

Sftpd → combined z-score class = no change with or without drug; viability z-score with doxorubicin = -0.22; viability z-score without drug = -0.34
Taar8b → combined z-score class = no change with or without drug; viability z-score with doxorubicin = 1.8; viability z-score without drug = -0.17
Hk1 → combined z-score class = no change with or without drug; viability z-score with doxorubicin = 1.57; viability z-score without drug = 0.84
Rbx1 → combined z-score class = low cell count without drug only; viability z-score with doxorubicin = -1.91; viability z-score without drug = -2.87
Hycc1 → combined z-score class = no change with or without drug; viability z-score with doxorubicin = 0.9; viability z-score without drug = 0.51
Ptprk → combined z-score class = no change with or without drug; viability z-score with doxorubicin = 0; viability z-score without drug = -1.18
Utp6 → combined z-score class = no change with or without drug; viability z-score with doxorubicin = -0.45; viability z-score without drug = -1.01
Steap1 → combined z-score class = high cell count with and without drug; viability z-score with doxorubicin = 2.36; viability z-score without drug = 2.87
Rfx2 → combined z-score class = no change with or without drug; viability z-score with doxorubicin = -0.45; viability z-score without drug = -0.51
Or11q2 → combined z-score class = low cell count without drug only; viability z-score with doxorubicin = -1.8; viability z-score without drug = -2.36
Haus2 → combined z-score class = no change with or without drug; viability z-score with doxorubicin = 1.24; viability z-score without drug = 0.51
B230340J04Rik → combined z-score class = no change with or without drug; viability z-score with doxorubicin = 0.22; viability z-score without drug = 0.17
Zc3hc1 → combined z-score class = high cell count with doxorubicin only; viability z-score with doxorubicin = 4.16; viability z-score without drug = 1.01
Ereg → combined z-score class = no change with or without drug; viability z-score with doxorubicin = 0.45; viability z-score without drug = -0.17
Tssc4 → combined z-score class = no change with or without drug; viability z-score with doxorubicin = 1.8; viability z-score without drug = 1.85
A930012O16Rik → combined z-score class = no change with or without drug; viability z-score with doxorubicin = -0.22; viability z-score without drug = 0.34
Crlf3 → combined z-score class = no change with or without drug; viability z-score with doxorubicin = -0.34; viability z-score without drug = 0.51
Pfdn4 → combined z-score class = high cell count with doxorubicin only; viability z-score with doxorubicin = 2.02; viability z-score without drug = 0.51
H2-D1 → combined z-score class = high cell count with and without drug; viability z-score with doxorubicin = 2.02; viability z-score without drug = 2.53
Ptgfrn → combined z-score class = no change with or without drug; viability z-score with doxorubicin = -0.22; viability z-score without drug = 0
Pdia6 → combined z-score class = no change with or without drug; viability z-score with doxorubicin = -0.56; viability z-score without drug = -0.17
Tnf → combined z-score class = no change with or without drug; viability z-score with doxorubicin = 0.22; viability z-score without drug = -0.17
Dapk1 → combined z-score class = no change with or without drug; viability z-score with doxorubicin = -0.67; viability z-score without drug = -1.18
Mettl21e → combined z-score class = no change with or without drug; viability z-score with doxorubicin = 0.34; viability z-score without drug = -0.34
Crybg1 → combined z-score class = high cell count without drug only; viability z-score with doxorubicin = 1.35; viability z-score without drug = 2.53
Vwa3a → combined z-score class = no change with or without drug; viability z-score with doxorubicin = -0.45; viability z-score without drug = 0
Speg → combined z-score class = no change with or without drug; viability z-score with doxorubicin = 0.22; viability z-score without drug = -0.17
Arg2 → combined z-score class = no change with or without drug; viability z-score with doxorubicin = 0.67; viability z-score without drug = -0.51
Fuca2 → combined z-score class = no change with or without drug; viability z-score with doxorubicin = -0.11; viability z-score without drug = -1.18
H2-M10.2 → combined z-score class = no change with or without drug; viability z-score with doxorubicin = -0.9; viability z-score without drug = 0.17
Meaf6 → combined z-score class = no change with or without drug; viability z-score with doxorubicin = -1.57; viability z-score without drug = 0.84
Atp1b3 → combined z-score class = no change with or without drug; viability z-score with doxorubicin = 0.34; viability z-score without drug = 0.84
Cyp4f39 → combined z-score class = no change with or without drug; viability z-score with doxorubicin = 0.45; viability z-score without drug = 0.84
Snrnp35 → combined z-score class = no change with or without drug; viability z-score with doxorubicin = -1.91; viability z-score without drug = -1.85
Rhoj → combined z-score class = no change with or without drug; viability z-score with doxorubicin = 1.12; viability z-score without drug = 1.52
Bricd5 → combined z-score class = no change with or without drug; viability z-score with doxorubicin = 0.45; viability z-score without drug = 0.51
